PubChem BioAssay AID1159578, Peter MacCallum Cancer Centre, 2015
The deposit covers about 18,000 reagents; below is a random part of them. Over the whole deposit, about 1,030 (5.7%) got an active call. 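Inactive calls also include pools with fewer than 3300 nuclei, whose migration was not assessed.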 Raw values are not corrected between plates. No sequences are given here.

Assay: 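siRNA pools altering how lymphatic endothelial cells close a scratch wound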 (primary screen)
Cells: human lymphatic endothelial cells
Reagent: siRNA pool against human genes, 40 nM
Time to read-out: 48 h after transfection
Measured: 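Cells stained with dye and imaged after a scratch; covered wound area and nuclei counted, duplicates averaged, migration set against mock wells and turned into a robust z-score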
Direction: migration robust z-score: higher = faster migration into the scratch; migration relative to mock: higher = more scratch area covered than mock; nuclei per well: higher = more cells in the well
Hit rule: 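Pools averaging fewer than 3300 nuclei are never called; remaining pools count as changed when migration robust z lies outside -2 to 2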
Calls: active = migration changed; inactive = no migration change, or too few cells

gene	migration robust z-score	migration class with cell-count check	migration relative to mock	nuclei per well, duplicate mean	call
TRPV2	-1.29	migration z between -2 and 2; enough cells	0.55	4798	inactive
ADORA3	-1.04	migration z between -2 and 2; enough cells	0.6	5938	inactive
FAM20C	0.44	migration z between -2 and 2; enough cells	1	5360	inactive
TPK1	-0.54	migration z between -2 and 2; enough cells	0.7	3482	inactive
GLIPR1L2	-0.52	migration z between -2 and 2; enough cells	0.75	3918	inactive
GYS2	1.61	migration z between -2 and 2; enough cells	1.12	5812	inactive
TEKTL1	-1.19	migration z between -2 and 2; enough cells	0.57	5812	inactive
TRIM23	-1.43	migration z between -2 and 2; enough cells	0.53	5838	inactive
MAP6D1	0.32	migration z between -2 and 2; enough cells	0.97	5521	inactive
PIGY	0.99	migration z between -2 and 2; enough cells	1.15	6239	inactive
NFE2L3	-1.61	migration z between -2 and 2; enough cells	0.5	5500	inactive
TNNT1	1.12	migration z between -2 and 2; enough cells	1.17	5524	inactive
CTBS	0.08	migration z between -2 and 2; enough cells	0.82	5562	inactive
CFAP70	1.12	migration z between -2 and 2; enough cells	1.17	5832	inactive
SLC9A6	0.13	migration z between -2 and 2; enough cells	0.83	5787	inactive
SLC38A1	-1.66	migration z between -2 and 2; enough cells	0.48	4365	inactive
HMGCL	0.83	migration z between -2 and 2; enough cells	0.97	5867	inactive
RAPGEF5	0.83	migration z between -2 and 2; enough cells	0.96	5373	inactive
CREG1	0.72	migration z between -2 and 2; enough cells	0.94	4778	inactive
RBMS3	0.48	migration z between -2 and 2; enough cells	1.01	6790	inactive
TRPM6	1.22	migration z between -2 and 2; enough cells	1.04	6484	inactive
SORBS2	-0.4	migration z between -2 and 2; enough cells	0.78	6225	inactive
RPL36AL	1.77	migration z between -2 and 2; enough cells	1.35	5745	inactive
GDNF	0.58	migration z between -2 and 2; enough cells	1.04	5486	inactive
PEBP1	-0.74	migration z between -2 and 2; enough cells	0.69	5968	inactive
MCCC2	0.55	migration z between -2 and 2; enough cells	0.91	5516	inactive
PRR35	0.22	migration z between -2 and 2; enough cells	0.94	6200	inactive
USF2	0.18	migration z between -2 and 2; enough cells	0.84	5254	inactive
COQ2	-0.1	migration z between -2 and 2; enough cells	0.78	4093	inactive
FRRS1L	0.43	migration z between -2 and 2; enough cells	1	5082	inactive
SART3	0.55	migration z between -2 and 2; enough cells	1.03	4957	inactive
POGZ	0.65	migration z between -2 and 2; enough cells	0.93	5762	inactive
PMAIP1	-1	migration z between -2 and 2; enough cells	0.62	4738	inactive
DENND6A	1.02	migration z between -2 and 2; enough cells	1.14	6426	inactive
ANPEP	-0.39	migration z between -2 and 2; enough cells	0.73	5672	inactive
ZBTB43	-0.81	migration z between -2 and 2; enough cells	0.68	5358	inactive
DNAJC25	-0.18	migration z between -2 and 2; enough cells	0.84	5768	inactive
RBM44	-0.58	migration z between -2 and 2; enough cells	0.74	5108	inactive
MOB2	0.9	migration z between -2 and 2; enough cells	1.12	6048	inactive
CHSY3	-2.88	migration z below -2; enough cells	0.25	5814	active
TMEM154	-0.19	migration z between -2 and 2; enough cells	0.84	5558	inactive
TUBB	0.8	migration z between -2 and 2; enough cells	1.09	4857	inactive
TCAF2	-1.23	migration z between -2 and 2; enough cells	0.56	6434	inactive
PCDHGB5	0.22	migration z between -2 and 2; enough cells	0.94	6002	inactive
TPTE2	-0.1	migration z between -2 and 2; enough cells	0.78	6264	inactive
FLT4	-5.21	under 3300 nuclei; migration not judged	-0.2	3166	inactive
MSH2	1.03	migration z between -2 and 2; enough cells	1	5005	inactive
ODAD2	2.13	migration z above 2; enough cells	1.44	6518	active
TBC1D21	-2.15	migration z below -2; enough cells	0.32	4957	active
MED28	-0.78	migration z between -2 and 2; enough cells	0.68	3332	inactive
PPIF	-0.34	migration z between -2 and 2; enough cells	0.74	6644	inactive
PXMP4	0.46	migration z between -2 and 2; enough cells	1	5491	inactive
CYP2R1	-2	migration z between -2 and 2; enough cells	0.36	5936	inactive
GALC	1.38	migration z between -2 and 2; enough cells	1.07	5420	inactive
FBXO25	-0.6	migration z between -2 and 2; enough cells	0.69	5417	inactive
SIN3A	0.21	migration z between -2 and 2; enough cells	0.84	5124	inactive
TMED1	0.24	migration z between -2 and 2; enough cells	0.85	6453	inactive

Reagents above with an active call:
gene	migration robust z-score	migration class with cell-count check	migration relative to mock	nuclei per well, duplicate mean	call
CHSY3	-2.88	migration z below -2; enough cells	0.25	5814	active
ODAD2	2.13	migration z above 2; enough cells	1.44	6518	active
TBC1D21	-2.15	migration z below -2; enough cells	0.32	4957	active
